# Laboratory results from the M2OR odorant receptor database.
# The entries are a selection whose mix differs from that of the whole data set. The calls were merged from several studies; some rest on single wells. The list shows a part of the results.
# System: T1, OR8S1
# T1 sequence (whole entry): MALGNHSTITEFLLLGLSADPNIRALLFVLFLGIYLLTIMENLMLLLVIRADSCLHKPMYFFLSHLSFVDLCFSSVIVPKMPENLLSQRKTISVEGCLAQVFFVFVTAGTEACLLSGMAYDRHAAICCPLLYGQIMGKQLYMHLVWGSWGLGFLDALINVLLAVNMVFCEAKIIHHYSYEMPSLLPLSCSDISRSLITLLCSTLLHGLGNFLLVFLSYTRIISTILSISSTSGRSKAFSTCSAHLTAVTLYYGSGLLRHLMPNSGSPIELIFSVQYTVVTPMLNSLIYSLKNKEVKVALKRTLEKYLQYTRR
# Settings: stereoisomer not certain
# Outline: (§1)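 Transient luciferase assays in mammalian cell lines were common, though methods varied by source. The values come from published papers and their supplementary material, with extra details from the original authors when needed. Responsive refers to a measured signal the original authors judged statistically different from baseline, and non-responsive (inactive) to the remainder.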
# 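Note: active if original authors judged signal statistically different from baseline.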
row,SMILES,odorant receptor agonist call
1,CCC(C)=O,inactive
2,CS,inactive
3,CCCCOC(C)=O,inactive

# System: T2, OR8U1
# T2 sequence (whole entry): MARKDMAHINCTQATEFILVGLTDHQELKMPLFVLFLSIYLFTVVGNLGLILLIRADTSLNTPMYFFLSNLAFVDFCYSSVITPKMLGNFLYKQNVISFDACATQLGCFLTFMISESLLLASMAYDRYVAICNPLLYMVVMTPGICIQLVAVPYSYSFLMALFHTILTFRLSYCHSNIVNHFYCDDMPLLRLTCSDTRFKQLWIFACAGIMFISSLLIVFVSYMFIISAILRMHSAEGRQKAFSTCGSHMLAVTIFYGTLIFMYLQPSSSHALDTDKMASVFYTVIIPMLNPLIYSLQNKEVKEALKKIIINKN
# Settings: stereoisomer not certain
# Outline: as §1
row,SMILES,odorant receptor agonist call
1,CCC(C)=O,inactive
2,CS,inactive
3,CCCCOC(C)=O,inactive

# System: T3, OR8U8
# T3 sequence (whole entry): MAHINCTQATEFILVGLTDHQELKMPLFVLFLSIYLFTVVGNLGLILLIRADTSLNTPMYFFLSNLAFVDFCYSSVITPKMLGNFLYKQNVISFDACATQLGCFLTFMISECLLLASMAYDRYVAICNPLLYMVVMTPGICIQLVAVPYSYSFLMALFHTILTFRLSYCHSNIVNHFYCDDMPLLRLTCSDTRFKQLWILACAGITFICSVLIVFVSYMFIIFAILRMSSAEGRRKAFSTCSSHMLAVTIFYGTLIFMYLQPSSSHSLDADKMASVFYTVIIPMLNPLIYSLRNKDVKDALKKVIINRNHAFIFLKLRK
# Settings: stereoisomer not certain
# Outline: as §1
row,SMILES,odorant receptor agonist call
1,CCC(C)=O,inactive
2,CS,inactive
3,CCCCOC(C)=O,inactive

# System: T4, OR8U9
# T4 sequence (whole entry): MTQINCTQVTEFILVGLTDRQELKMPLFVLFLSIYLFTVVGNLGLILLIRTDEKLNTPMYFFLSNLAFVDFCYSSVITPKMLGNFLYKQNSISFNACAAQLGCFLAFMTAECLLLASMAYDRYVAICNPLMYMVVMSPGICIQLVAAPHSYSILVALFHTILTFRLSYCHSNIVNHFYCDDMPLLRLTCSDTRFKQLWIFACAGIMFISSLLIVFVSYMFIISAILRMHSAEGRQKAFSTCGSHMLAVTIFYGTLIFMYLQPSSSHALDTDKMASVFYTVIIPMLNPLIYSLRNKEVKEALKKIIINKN
# Settings: stereoisomer not certain
# Outline: as §1
row,SMILES,odorant receptor agonist call
1,CCC(C)=O,inactive
2,CS,inactive
3,CCCCOC(C)=O,inactive

# System: T5, OR9A2
# T5 sequence (whole entry): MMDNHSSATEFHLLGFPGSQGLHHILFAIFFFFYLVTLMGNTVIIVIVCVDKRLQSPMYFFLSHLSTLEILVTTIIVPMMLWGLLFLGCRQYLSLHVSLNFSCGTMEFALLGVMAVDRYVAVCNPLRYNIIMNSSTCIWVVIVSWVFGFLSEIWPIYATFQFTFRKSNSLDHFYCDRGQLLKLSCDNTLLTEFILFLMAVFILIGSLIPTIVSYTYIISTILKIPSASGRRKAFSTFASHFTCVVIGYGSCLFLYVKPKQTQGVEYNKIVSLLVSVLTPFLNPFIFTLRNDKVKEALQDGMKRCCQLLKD
# Settings: stereoisomer not certain
# Outline: as §1
row,SMILES,odorant receptor agonist call
1,CCC(C)=O,inactive
2,CS,inactive
3,CCCCOC(C)=O,inactive

# Target: T6, OR9A4 (Homo sapiens) (UniProt Q8NGU2)
# T6 sequence (whole entry): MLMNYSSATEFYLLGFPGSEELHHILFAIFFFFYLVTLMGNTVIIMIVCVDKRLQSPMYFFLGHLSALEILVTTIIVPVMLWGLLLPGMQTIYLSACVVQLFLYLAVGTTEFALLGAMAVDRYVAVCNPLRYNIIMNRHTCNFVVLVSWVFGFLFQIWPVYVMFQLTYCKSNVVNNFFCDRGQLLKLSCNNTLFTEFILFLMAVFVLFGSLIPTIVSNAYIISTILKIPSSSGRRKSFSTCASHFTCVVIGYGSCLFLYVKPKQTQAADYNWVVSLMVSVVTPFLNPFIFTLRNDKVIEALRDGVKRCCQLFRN
# Settings: stereoisomer not certain
# Outline: as §1
row,SMILES,odorant receptor agonist call
1,CCC(C)=O,inactive
2,CS,inactive
3,CCCCOC(C)=O,inactive

# System: T7, OR9G4
# T7 sequence (whole entry): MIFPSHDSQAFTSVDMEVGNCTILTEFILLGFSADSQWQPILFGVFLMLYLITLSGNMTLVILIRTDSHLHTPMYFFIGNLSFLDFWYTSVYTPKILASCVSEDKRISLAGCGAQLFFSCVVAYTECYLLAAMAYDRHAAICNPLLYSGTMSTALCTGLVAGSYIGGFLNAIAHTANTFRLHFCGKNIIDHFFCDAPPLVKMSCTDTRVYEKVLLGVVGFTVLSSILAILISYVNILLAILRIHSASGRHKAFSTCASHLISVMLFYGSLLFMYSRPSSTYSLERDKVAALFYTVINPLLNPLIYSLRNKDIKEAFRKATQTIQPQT
# Settings: stereoisomer not certain
# Outline: as §1
row,SMILES,odorant receptor agonist call
1,CCC(C)=O,inactive
2,CS,inactive
3,CCCCOC(C)=O,inactive

# System: T8, OR9G9
# T8 sequence (whole entry): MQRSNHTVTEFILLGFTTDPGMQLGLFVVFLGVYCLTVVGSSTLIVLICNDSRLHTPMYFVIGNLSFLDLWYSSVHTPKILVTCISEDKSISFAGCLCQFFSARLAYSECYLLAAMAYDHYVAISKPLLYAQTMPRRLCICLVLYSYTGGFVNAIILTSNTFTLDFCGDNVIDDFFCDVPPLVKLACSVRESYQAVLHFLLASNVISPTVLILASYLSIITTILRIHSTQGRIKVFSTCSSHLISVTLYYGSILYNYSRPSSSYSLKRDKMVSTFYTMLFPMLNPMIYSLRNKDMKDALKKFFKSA
# Settings: stereoisomer not certain
# Outline: as §1
row,SMILES,odorant receptor agonist call
1,CCC(C)=O,inactive
2,CS,inactive
3,CCCCOC(C)=O,inactive

# System: T9, OR9G9
# T9 sequence (whole entry): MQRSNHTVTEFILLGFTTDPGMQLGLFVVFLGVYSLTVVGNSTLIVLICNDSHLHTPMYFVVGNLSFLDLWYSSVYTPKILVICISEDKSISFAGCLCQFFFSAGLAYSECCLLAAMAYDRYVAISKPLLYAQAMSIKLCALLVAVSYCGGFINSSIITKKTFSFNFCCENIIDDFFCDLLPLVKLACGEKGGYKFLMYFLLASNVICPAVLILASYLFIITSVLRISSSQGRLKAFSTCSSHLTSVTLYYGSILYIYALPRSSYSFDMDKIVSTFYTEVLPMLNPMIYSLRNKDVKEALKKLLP
# Settings: stereoisomer not certain
# Outline: as §1
row,SMILES,odorant receptor agonist call
1,CCC(C)=O,inactive
2,CS,inactive
3,CCCCOC(C)=O,inactive

# Target: T10, OR9I1 (Homo sapiens) (UniProt Q8NGQ6)
# T10 sequence (whole entry): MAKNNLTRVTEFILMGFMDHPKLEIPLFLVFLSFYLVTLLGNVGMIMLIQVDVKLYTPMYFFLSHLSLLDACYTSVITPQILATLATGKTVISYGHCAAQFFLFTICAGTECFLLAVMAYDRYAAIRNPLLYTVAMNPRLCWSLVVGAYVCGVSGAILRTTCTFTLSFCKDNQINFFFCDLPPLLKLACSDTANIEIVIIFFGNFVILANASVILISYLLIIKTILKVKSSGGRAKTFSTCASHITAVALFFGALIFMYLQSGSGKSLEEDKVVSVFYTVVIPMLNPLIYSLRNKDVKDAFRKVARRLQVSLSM
# Settings: stereoisomer not certain
# Outline: as §1
row,SMILES,odorant receptor agonist call
1,CCC(C)=O,inactive
2,CS,inactive
3,CCCCOC(C)=O,inactive

# Target: T11, OR9K2 (Homo sapiens) (UniProt Q8NGE7)
# T11 sequence (whole entry): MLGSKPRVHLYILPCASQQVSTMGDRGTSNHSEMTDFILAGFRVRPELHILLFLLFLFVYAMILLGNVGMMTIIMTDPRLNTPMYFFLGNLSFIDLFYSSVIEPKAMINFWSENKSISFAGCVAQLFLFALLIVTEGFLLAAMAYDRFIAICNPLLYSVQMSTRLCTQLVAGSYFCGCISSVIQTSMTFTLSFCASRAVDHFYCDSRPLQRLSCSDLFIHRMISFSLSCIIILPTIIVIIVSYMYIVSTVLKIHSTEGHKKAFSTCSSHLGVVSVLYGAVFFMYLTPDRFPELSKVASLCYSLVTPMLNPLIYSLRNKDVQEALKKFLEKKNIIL
# Settings: stereoisomer not certain
# Outline: as §1
row,SMILES,odorant receptor agonist call
1,CCC(C)=O,inactive
2,CS,inactive
3,CCCCOC(C)=O,inactive

# System: T12, OR9Q1
# T12 sequence (whole entry): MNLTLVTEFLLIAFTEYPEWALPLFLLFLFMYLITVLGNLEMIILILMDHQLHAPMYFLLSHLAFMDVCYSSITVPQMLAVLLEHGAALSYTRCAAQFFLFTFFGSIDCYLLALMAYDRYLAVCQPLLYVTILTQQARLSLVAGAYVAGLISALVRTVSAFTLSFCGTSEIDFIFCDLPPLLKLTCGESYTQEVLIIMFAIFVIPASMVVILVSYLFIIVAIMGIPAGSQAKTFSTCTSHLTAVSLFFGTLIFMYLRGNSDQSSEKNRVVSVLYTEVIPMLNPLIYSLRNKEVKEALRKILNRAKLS
# Settings: stereoisomer not certain
# Outline: as §1
row,SMILES,odorant receptor agonist call
1,CCC(C)=O,inactive
2,CS,inactive
3,CCCCOC(C)=O,inactive

# Target: T13, OR9Q2 (Homo sapiens) (UniProt Q8NGE9)
# T13 sequence (whole entry): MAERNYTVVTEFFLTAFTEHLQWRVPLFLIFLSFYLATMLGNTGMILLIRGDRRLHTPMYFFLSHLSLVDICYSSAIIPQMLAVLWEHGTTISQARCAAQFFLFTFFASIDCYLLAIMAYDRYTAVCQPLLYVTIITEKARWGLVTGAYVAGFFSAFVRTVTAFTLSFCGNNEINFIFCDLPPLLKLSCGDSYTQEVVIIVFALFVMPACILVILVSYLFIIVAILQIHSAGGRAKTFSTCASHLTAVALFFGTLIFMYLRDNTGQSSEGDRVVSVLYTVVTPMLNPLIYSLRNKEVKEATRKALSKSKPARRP
# Settings: stereoisomer not certain
# Outline: as §1
row,SMILES,odorant receptor agonist call
1,CCC(C)=O,inactive
2,CS,inactive
3,CCCCOC(C)=O,inactive

# System: T14, OR9Q2
# T14 sequence (whole entry): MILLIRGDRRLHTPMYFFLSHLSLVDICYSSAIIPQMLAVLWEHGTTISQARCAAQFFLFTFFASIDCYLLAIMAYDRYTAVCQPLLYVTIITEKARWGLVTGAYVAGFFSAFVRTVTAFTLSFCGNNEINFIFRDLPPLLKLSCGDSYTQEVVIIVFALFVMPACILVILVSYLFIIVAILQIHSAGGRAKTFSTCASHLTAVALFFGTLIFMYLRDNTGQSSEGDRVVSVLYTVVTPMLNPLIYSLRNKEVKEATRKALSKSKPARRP
# Settings: stereoisomer not certain
# Outline: as §1
row,SMILES,odorant receptor agonist call
1,CCC(C)=O,inactive
2,CS,inactive
3,CCCCOC(C)=O,inactive

# System: T15, ORM2B
# T15 sequence (whole entry): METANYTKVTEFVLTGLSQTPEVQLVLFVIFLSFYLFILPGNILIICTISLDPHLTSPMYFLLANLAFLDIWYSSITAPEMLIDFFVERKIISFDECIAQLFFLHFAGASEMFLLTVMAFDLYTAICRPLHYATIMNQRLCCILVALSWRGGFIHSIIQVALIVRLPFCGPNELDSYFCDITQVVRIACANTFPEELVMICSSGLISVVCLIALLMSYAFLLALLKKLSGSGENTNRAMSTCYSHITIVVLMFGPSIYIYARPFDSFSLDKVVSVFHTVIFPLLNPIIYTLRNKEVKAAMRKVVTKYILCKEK
# Settings: stereoisomer not certain
# Outline: as §1
row,SMILES,odorant receptor agonist call
1,CCC(C)=O,inactive
2,CS,inactive
3,CCCCOC(C)=O,inactive
